# From the supplement of paper PMC8728848
# The list shows a part of the results.
# B1: EUL D1A (Oryza sativa) (protein)
# chain: MFGFGHHHNQAPAAPSDPNQIFKIFCRANENYCLTVRDSAVVLAPVNPKDEHQHWFKDMRFSTKVKDGEGMPAFALVNKATGLAVKHSLGQSHPVKLVPFNPEYEDASVLWTESKDVGKGFRCIRMVNNTRLNLDAFHGDKDHGGVRDGTTVVLWEWCKGDNQSWKILPWGPEAHSSSPGAATACTIGGVPVHTVRVFSAAGEDYCLTVRNGTACLAPKNPRDDYQHWIKDMRHSNKIRDEEGYPAFALVNKVTGEAIKHSTGQGHPVKLVPYNPEYQDESVLWTESKDVGKGFRCIRMVNNIYLNFDAFHGDKDHGGIHDGTEIVLWKWCEGDNQRWKILPWILEQKLISEEDLNSAVDHHHHHH
# Columns and labels:
# Experiment in all cases: glycan array binding signal (z-score within array); higher = stronger binding
# Settings in all cases: glycan notation: IUPAC condensed, linker removed
# [1] = target: Gal(b1-3)[Fuc(a1-4)]GlcNAc(b1-6)GalNAc
# Procedure, shortened: (§1)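 The Consortium for Functional Glycomics database supplied 3228 glycan arrays, of which those lacking an available protein sequence were dropped. The binding signal, a within-array Z-score, was averaged across arrays of the same protein sequence and across linkers. Negative scores can be read as non-binding.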
# [2] = target: Gal(b1-3)[GlcNAc(b1-6)]GalNAc
# Procedure, shortened: as §1
# [3] = target: Gal(b1-3)[Neu5Ac(a2-6)]GalNAc
# Procedure, shortened: as §1
# [4] = target: Gal(b1-3)[Neu5Ac(a2-6)]GlcNAc(b1-4)Gal(b1-4)Glc
# Procedure, shortened: as §1
# [5] = target: Gal(b1-3)[Neu5Ac(b2-6)]GalNAc
# Procedure, shortened: as §1
# Gal(b1-4)Gal = target: Gal(b1-4)Gal
# Procedure, shortened: as §1
# [6] = target: Gal(b1-4)GalNAc(a1-3)[Fuc(a1-2)]Gal(b1-4)GlcNAc
# Procedure, shortened: as §1
# [7] = target: Gal(b1-4)GalNAc(b1-3)[Fuc(a1-2)]Gal(b1-4)GlcNAc
# Procedure, shortened: as §1
# Gal(b1-4)Glc = target: Gal(b1-4)Glc
# Procedure, shortened: as §1
# Gal(b1-4)Glc6S = target: Gal(b1-4)Glc6S
# Procedure, shortened: as §1
# Gal(b1-4)GlcNAc = target: Gal(b1-4)GlcNAc
# Procedure, shortened: as §1
# [8] = target: Gal(b1-4)GlcNAc(a1-6)Gal(b1-4)GlcNAc
# Procedure, shortened: as §1
# Gal(b1-4)GlcNAc(b1-2)Man = target: Gal(b1-4)GlcNAc(b1-2)Man
# Procedure, shortened: as §1
# [9] = target: Gal(b1-4)GlcNAc(b1-2)Man(a1-3)Man(b1-4)GlcNAc(b1-4)GlcNAc
# Procedure, shortened: as §1
# [10] = target: Gal(b1-4)GlcNAc(b1-2)Man(a1-3)[Gal(b1-4)GlcNAc(b1-2)Man(a1-6)]Man(b1-4)GlcNAc(b1-4)GlcNAc
# Procedure, shortened: as §1
# [11] = target: Gal(b1-4)GlcNAc(b1-2)Man(a1-3)[Gal(b1-4)GlcNAc(b1-2)Man(a1-6)]Man(b1-4)GlcNAc(b1-4)[Fuc(a1-6)]GlcNAc
# Procedure, shortened: as §1
# [12] = target: Gal(b1-4)GlcNAc(b1-2)Man(a1-3)[Gal(b1-4)GlcNAc(b1-2)Man(a1-6)][Gal(b1-4)GlcNAc(b1-4)]Man(b1-4)GlcNAc(b1-4)[Fuc(a1-6)]GlcNAc
# Procedure, shortened: as §1
# [13] = target: Gal(b1-4)GlcNAc(b1-2)Man(a1-3)[Gal(b1-4)GlcNAc(b1-2)Man(a1-6)][GlcNAc(b1-4)]Man(b1-4)GlcNAc(b1-4)[Fuc(a1-6)]GlcNAc
# Procedure, shortened: as §1
# [14] = target: Gal(b1-4)GlcNAc(b1-2)Man(a1-3)[GlcNAc(b1-2)Man(a1-6)]Man(b1-4)GlcNAc(b1-4)GlcNAc
# Procedure, shortened: as §1
# [15] = target: Gal(b1-4)GlcNAc(b1-2)Man(a1-3)[GlcNAc(b1-4)][Gal(b1-4)GlcNAc(b1-2)Man(a1-6)]Man(b1-4)GlcNAc(b1-4)GlcNAc
# Procedure, shortened: as §1
# [16] = target: Gal(b1-4)GlcNAc(b1-2)Man(a1-3)[Man(a1-6)]Man(b1-4)GlcNAc(b1-4)GlcNAc
# Procedure, shortened: as §1
# [17] = target: Gal(b1-4)GlcNAc(b1-2)Man(a1-6)Man(b1-4)GlcNAc(b1-4)GlcNAc
# Procedure, shortened: as §1
# [18] = target: Gal(b1-4)GlcNAc(b1-2)Man(a1-6)[GlcNAc(b1-2)Man(a1-3)]Man(b1-4)GlcNAc(b1-4)GlcNAc
# Procedure, shortened: as §1
# [19] = target: Gal(b1-4)GlcNAc(b1-2)Man(a1-6)[Man(a1-3)]Man(b1-4)GlcNAc(b1-4)GlcNAc
# Procedure, shortened: as §1
# [20] = target: Gal(b1-4)GlcNAc(b1-2)[Gal(b1-4)GlcNAc(b1-4)]Man(a1-3)[Gal(b1-4)GlcNAc(b1-2)Man(a1-6)]Man(b1-4)GlcNAc(b1-4)GlcNAc
# Procedure, shortened: as §1
# [21] = target: Gal(b1-4)GlcNAc(b1-2)[Gal(b1-4)GlcNAc(b1-4)]Man(a1-3)[Gal(b1-4)GlcNAc(b1-2)[Gal(b1-4)GlcNAc(b1-6)]Man(a1-6)]Man(b1-4)GlcNAc(b1-4)GlcNAc
# Procedure, shortened: as §1
# [22] = target: Gal(b1-4)GlcNAc(b1-2)[Gal(b1-4)GlcNAc(b1-4)]Man(a1-3)[GlcNAc(b1-4)][Gal(b1-4)GlcNAc(b1-2)Man(a1-6)]Man(b1-4)GlcNAc(b1-4)GlcNAc
# Procedure, shortened: as §1
# [23] = target: Gal(b1-4)GlcNAc(b1-2)[Gal(b1-4)GlcNAc(b1-4)]Man(a1-3)[GlcNAc(b1-4)][Gal(b1-4)GlcNAc(b1-2)[Gal(b1-4)GlcNAc(b1-6)]Man(a1-6)]Man(b1-4)GlcNAc(b1-4)GlcNAc
# Procedure, shortened: as §1
# [24] = target: Gal(b1-4)GlcNAc(b1-2)[Gal(b1-4)GlcNAc(b1-6)]Man(a1-6)[Gal(b1-4)GlcNAc(b1-2)Man(a1-3)]Man(b1-4)GlcNAc(b1-4)GlcNAc
# Procedure, shortened: as §1
# [25] = target: Gal(b1-4)GlcNAc(b1-2)[Gal(b1-4)GlcNAc(b1-6)]Man(a1-6)[Gal(b1-4)GlcNAc(b1-2)Man(a1-3)]Man(b1-4)GlcNAc(b1-4)[Fuc(a1-6)]GlcNAc
# Procedure, shortened: as §1
# [26] = target: Gal(b1-4)GlcNAc(b1-2)[Gal(b1-4)GlcNAc(b1-6)]Man(a1-6)[GlcNAc(b1-4)][Gal(b1-4)GlcNAc(b1-2)Man(a1-3)]Man(b1-4)GlcNAc(b1-4)GlcNAc
# Procedure, shortened: as §1
# [27] = target: Gal(b1-4)GlcNAc(b1-2)[Gal(b1-4)GlcNAc(b1-6)]Man(a1-6)[GlcNAc(b1-4)][Gal(b1-4)GlcNAc(b1-2)[Gal(b1-4)GlcNAc(b1-4)]Man(a1-3)]Man(b1-4)GlcNAc(b1-4)[Fuc(a1-6)]GlcNAc
# Procedure, shortened: as §1
# [28] = target: Gal(b1-4)GlcNAc(b1-3)Gal(b1-3)GalNAc
# Procedure, shortened: as §1
# [29] = target: Gal(b1-4)GlcNAc(b1-3)Gal(b1-3)GlcNAc
# Procedure, shortened: as §1
# [30] = target: Gal(b1-4)GlcNAc(b1-3)Gal(b1-4)Glc
# Procedure, shortened: as §1
# [31] = target: Gal(b1-4)GlcNAc(b1-3)Gal(b1-4)GlcNAc
# Procedure, shortened: as §1
# [32] = target: Gal(b1-4)GlcNAc(b1-3)Gal(b1-4)GlcNAc(b1-2)Man(a1-3)[Gal(b1-4)GlcNAc(b1-3)Gal(b1-4)GlcNAc(b1-2)Man(a1-6)]Man(b1-4)GlcNAc(b1-4)GlcNAc
# Procedure, shortened: as §1
# [33] = target: Gal(b1-4)GlcNAc(b1-3)Gal(b1-4)GlcNAc(b1-2)Man(a1-3)[Gal(b1-4)GlcNAc(b1-3)Gal(b1-4)GlcNAc(b1-2)Man(a1-6)]Man(b1-4)GlcNAc(b1-4)[Fuc(a1-6)]GlcNAc
# Procedure, shortened: as §1
binder,measurement,setting,value
B1,glycan array binding signal (z-score),[1],-0.229
same,glycan array binding signal (z-score),[2],-0.369
same,glycan array binding signal (z-score),[3],0.492
same,glycan array binding signal (z-score),[4],-0.484
same,glycan array binding signal (z-score),[5],0.018
same,glycan array binding signal (z-score),Gal(b1-4)Gal,-0.703
same,glycan array binding signal (z-score),[6],-0.914
same,glycan array binding signal (z-score),[7],-0.23
same,glycan array binding signal (z-score),Gal(b1-4)Glc,-1.3
same,glycan array binding signal (z-score),Gal(b1-4)Glc6S,-0.659
same,glycan array binding signal (z-score),Gal(b1-4)GlcNAc,-0.896
same,glycan array binding signal (z-score),[8],0.248
same,glycan array binding signal (z-score),Gal(b1-4)GlcNAc(b1-2)Man,0.883
same,glycan array binding signal (z-score),[9],-0.73
same,glycan array binding signal (z-score),[10],-0.064
same,glycan array binding signal (z-score),[11],1.25
same,glycan array binding signal (z-score),[12],-0.538
same,glycan array binding signal (z-score),[13],-1.5
same,glycan array binding signal (z-score),[14],-0.742
same,glycan array binding signal (z-score),[15],0.239
same,glycan array binding signal (z-score),[16],-0.581
same,glycan array binding signal (z-score),[17],-0.069
same,glycan array binding signal (z-score),[18],-1.47
same,glycan array binding signal (z-score),[19],-0.638
same,glycan array binding signal (z-score),[20],-0.621
same,glycan array binding signal (z-score),[21],-0.233
same,glycan array binding signal (z-score),[22],0.756
same,glycan array binding signal (z-score),[23],-0.827
same,glycan array binding signal (z-score),[24],0.366
same,glycan array binding signal (z-score),[25],0.548
same,glycan array binding signal (z-score),[26],-0.638
same,glycan array binding signal (z-score),[27],0.204
same,glycan array binding signal (z-score),[28],-0.226
same,glycan array binding signal (z-score),[29],0.449
same,glycan array binding signal (z-score),[30],-0.327
same,glycan array binding signal (z-score),[31],-1.1
same,glycan array binding signal (z-score),[32],1.96
same,glycan array binding signal (z-score),[33],0.162

# Reformatted with tabs: part of the list above
binder	measurement	setting	value
B1	glycan array binding signal (z-score)	[16]	-0.581
same	glycan array binding signal (z-score)	[17]	-0.069
